Data reported in publication PMC7704979 (EJNMMI Radiopharmacy and Chemistry, 2020).

Assay: general procedure: Fmoc solid-phase peptide synthesis; Rink amide 4-methylbenzhydrylamine resin; HATU
Conditions: whole synthesis

Which results are given for “AAZTA^5-Pip-D-Phe-Gln-Trp-Ala-Val-Gly-His-Sta-Leu-NH2”?
isolated yield: 30 to 40%; final HPLC purity (HPLC and mass spectroscopy): > 95%
